Data: PMC5894245
No constants are given. Whether binding was seen depends on the method and setting. Binding seen in cells or lysates may run through a third protein. Binding can be weak; no strength is given.

By UniProt entry, the sequences of proteins in these tests, tags left out. Where a name states a change or a piece, a line headed by the entry shows the natural chain unless it says otherwise. Residues count along the entry.
UniProt P05362, residues 28-532: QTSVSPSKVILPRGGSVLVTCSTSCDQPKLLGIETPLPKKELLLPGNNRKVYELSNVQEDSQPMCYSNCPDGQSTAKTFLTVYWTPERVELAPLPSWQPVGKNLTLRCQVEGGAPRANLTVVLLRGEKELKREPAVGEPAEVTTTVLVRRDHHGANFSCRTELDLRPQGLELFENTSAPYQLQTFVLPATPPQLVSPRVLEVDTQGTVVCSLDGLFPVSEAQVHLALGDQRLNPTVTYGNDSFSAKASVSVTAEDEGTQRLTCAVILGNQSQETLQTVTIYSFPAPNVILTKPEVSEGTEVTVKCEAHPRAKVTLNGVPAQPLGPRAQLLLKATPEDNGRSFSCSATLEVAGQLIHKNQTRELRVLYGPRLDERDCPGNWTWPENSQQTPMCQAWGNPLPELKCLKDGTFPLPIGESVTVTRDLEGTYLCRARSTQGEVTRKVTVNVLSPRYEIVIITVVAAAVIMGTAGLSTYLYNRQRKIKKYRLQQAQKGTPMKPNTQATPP
UniProt P14780: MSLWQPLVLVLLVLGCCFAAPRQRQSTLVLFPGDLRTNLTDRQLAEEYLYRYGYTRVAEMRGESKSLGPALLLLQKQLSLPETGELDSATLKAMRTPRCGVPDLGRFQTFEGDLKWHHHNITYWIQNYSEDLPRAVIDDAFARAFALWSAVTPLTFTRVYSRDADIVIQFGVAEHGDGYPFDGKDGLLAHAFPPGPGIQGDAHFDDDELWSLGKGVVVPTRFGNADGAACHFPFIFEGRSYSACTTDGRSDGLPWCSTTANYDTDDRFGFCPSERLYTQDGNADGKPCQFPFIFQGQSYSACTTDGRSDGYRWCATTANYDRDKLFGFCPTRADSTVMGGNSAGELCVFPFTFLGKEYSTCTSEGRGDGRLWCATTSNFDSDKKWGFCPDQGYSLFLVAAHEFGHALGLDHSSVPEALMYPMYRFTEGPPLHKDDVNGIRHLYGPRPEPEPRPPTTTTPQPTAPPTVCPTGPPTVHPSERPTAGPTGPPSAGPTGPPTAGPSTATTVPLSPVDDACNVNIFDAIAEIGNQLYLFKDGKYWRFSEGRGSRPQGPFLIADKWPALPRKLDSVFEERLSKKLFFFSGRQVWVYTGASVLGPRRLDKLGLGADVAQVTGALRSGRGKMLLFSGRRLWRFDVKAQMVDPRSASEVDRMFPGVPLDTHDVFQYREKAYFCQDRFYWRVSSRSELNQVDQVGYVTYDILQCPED

Molecular target: Intercellular cell adhesion molecule 1 (ICAM1) (human (endogenous in M13SV1-Cre)) (UniProt P05362)
Test: co-IP; lysates of M13SV1-Cre cells (untreated, 100 ng/ml TNF-α, 10 μg/ml minocycline or both, 72 h); 1% NP-40, 50 mM Tris-HCl pH 7.5, 150 mM NaCl, 1 mM EDTA, 1 mM EGTA; ICAM1 precipitated with anti-ICAM1/CD54 (clone 11C81, 5 μg/ml) overnight at 4 °C and Protein A magnetic beads; IgG1 as control; MMP9 detected by Western blot

Matrix metalloproteinase-9 (MMP9) (from UniProt P14780) (enzyme)
binding: binds
